Laboratory results: paper PMC5618632, “In Vitro Glucuronidation of Wushanicaritin by Liver Microsomes, Intestine Microsomes and Expressed Human UDP-Glucuronosyltransferase Enzymes” (International Journal of Molecular Sciences, 2017)

Assay: Activity correlation analysis in a bank of individual HLMs (n = 12)
Type: in vitro ADME, human

## COc1ccc(-c2oc3c(CCC(C)(C)O)c(O)cc(O)c3c(=O)c2O)cc1 [wushanicaritin]
G1 vs AZT glucuronidation (UGT2B7 marker), p = 0.189
  correlation factor r: 0.407
G1 vs CDCA glucuronidation (UGT1A3 marker), p = 0.036
  correlation factor r: 0.609
G1 vs propofol glucuronidation (UGT1A9 marker), p = 0.047
  correlation factor r: 0.582
G1 vs β-estradiol glucuronidation (UGT1A1 marker), p = 0.0005
  correlation factor r: 0.847
G2 vs AZT glucuronidation (UGT2B7 marker), p = 0.123
  correlation factor r: 0.470
G2 vs CDCA glucuronidation (UGT1A3 marker), p = 0.026
  correlation factor r: 0.638
G2 vs propofol glucuronidation (UGT1A9 marker), p = 0.035
  correlation factor r: 0.611
G2 vs β-estradiol glucuronidation (UGT1A1 marker), p = 0.049
  correlation factor r: 0.577
